This note sets out measurements from publication PMC4986951.

Test [1] addresses T1, pGBKT7-ANAC078 (ANAC078 as two-hybrid bait fusion) (Arabidopsis thaliana) (UniProt Q84K00).
T1 sequence: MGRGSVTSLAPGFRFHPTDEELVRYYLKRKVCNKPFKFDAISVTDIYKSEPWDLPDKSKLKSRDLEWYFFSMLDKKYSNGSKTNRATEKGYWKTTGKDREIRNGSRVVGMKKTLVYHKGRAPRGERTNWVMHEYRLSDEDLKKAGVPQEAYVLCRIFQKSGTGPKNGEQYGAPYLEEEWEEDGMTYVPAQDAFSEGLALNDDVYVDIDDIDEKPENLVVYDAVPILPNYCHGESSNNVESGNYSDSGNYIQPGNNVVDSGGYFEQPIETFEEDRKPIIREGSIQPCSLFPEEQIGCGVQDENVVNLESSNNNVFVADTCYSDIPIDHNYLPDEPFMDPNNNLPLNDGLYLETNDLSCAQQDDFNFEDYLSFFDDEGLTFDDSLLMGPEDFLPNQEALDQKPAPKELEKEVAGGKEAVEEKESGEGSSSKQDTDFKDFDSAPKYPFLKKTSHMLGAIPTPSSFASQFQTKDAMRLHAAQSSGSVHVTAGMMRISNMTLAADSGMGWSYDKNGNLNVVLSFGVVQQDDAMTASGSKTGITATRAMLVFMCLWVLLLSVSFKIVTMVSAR
Kind of test: two-hybrid; yeast co-transformed with pGBKT7-ANAC078 and pGADT7-PI4Kγ5, dilution series on SD(-Leu-Trp-His-Ade) with X-α-gal; α-Gal activity; pGBKT7-ANAC078 with empty pGADT7 as negative control.

Test [2] addresses T2, ANAC078-cLuc (Arabidopsis thaliana) (UniProt Q84K00).
T2 sequence: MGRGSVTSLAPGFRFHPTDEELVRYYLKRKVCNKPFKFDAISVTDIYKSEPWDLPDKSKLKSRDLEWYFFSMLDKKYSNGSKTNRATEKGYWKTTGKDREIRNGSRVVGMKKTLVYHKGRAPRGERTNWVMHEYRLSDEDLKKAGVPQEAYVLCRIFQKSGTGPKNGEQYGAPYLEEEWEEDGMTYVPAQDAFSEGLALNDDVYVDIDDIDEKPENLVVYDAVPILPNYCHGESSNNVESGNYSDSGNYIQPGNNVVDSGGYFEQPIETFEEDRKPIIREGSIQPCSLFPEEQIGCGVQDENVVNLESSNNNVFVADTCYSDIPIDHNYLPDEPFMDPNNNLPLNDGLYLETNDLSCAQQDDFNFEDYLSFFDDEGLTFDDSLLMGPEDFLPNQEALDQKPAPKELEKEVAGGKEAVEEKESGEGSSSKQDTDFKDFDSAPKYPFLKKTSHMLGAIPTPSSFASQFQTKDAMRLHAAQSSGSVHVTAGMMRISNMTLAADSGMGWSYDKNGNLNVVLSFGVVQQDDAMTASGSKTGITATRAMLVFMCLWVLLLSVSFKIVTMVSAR
Kind of test: split reporter; firefly luciferase complementation; PI4Kγ5-nLuc and ANAC078-cLuc co-expressed through Agrobacterium in Nicotiana benthamiana leaves, observed after 48 h.

For test [3], the target named is T3, BD-PI4Kγ5 (Arabidopsis type II phosphatidylinositol 4-kinase PI4Kγ5, two-hybrid bait) (Arabidopsis thaliana) (UniProt Q9C671).
T3 sequence: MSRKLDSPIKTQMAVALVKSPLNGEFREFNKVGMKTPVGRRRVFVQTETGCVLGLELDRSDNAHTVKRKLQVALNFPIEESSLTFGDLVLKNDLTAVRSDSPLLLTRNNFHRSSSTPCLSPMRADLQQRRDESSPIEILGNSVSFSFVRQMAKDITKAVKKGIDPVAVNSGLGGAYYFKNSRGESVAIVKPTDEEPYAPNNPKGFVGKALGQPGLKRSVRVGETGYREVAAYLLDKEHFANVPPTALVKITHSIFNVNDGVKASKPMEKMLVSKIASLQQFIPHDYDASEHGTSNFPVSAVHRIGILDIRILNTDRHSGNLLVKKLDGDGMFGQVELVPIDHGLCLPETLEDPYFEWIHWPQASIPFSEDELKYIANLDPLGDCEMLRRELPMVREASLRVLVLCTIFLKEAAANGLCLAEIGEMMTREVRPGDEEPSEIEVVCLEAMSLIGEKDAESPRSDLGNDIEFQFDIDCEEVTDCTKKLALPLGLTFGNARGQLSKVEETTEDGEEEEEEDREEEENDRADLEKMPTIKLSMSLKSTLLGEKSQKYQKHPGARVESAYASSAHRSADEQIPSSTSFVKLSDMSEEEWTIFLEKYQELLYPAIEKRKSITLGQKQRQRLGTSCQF
Kind of test: two-hybrid; library screen with BD-PI4Kγ5 as bait on SD (-Leu/-Trp/-His/-Ade) plates; candidate clones confirmed by growth after co-transformation.

No constants are given. Whether binding was seen depends on the method and setting. For part of these data: In cells and extracts the contact can be indirect. Some results given as binding are weak or reduced against the parent protein; the word gives no strength. Tags and fused reporters may be left off the sequences shown.

B1: pGADT7-PI4Kγ5 (PI4Kγ5 as two-hybrid prey fusion) (enzyme, UniProt Q9C671 1-630)
chain: MSRKLDSPIKTQMAVALVKSPLNGEFREFNKVGMKTPVGRRRVFVQTETGCVLGLELDRSDNAHTVKRKLQVALNFPIEESSLTFGDLVLKNDLTAVRSDSPLLLTRNNFHRSSSTPCLSPMRADLQQRRDESSPIEILGNSVSFSFVRQMAKDITKAVKKGIDPVAVNSGLGGAYYFKNSRGESVAIVKPTDEEPYAPNNPKGFVGKALGQPGLKRSVRVGETGYREVAAYLLDKEHFANVPPTALVKITHSIFNVNDGVKASKPMEKMLVSKIASLQQFIPHDYDASEHGTSNFPVSAVHRIGILDIRILNTDRHSGNLLVKKLDGDGMFGQVELVPIDHGLCLPETLEDPYFEWIHWPQASIPFSEDELKYIANLDPLGDCEMLRRELPMVREASLRVLVLCTIFLKEAAANGLCLAEIGEMMTREVRPGDEEPSEIEVVCLEAMSLIGEKDAESPRSDLGNDIEFQFDIDCEEVTDCTKKLALPLGLTFGNARGQLSKVEETTEDGEEEEEEDREEEENDRADLEKMPTIKLSMSLKSTLLGEKSQKYQKHPGARVESAYASSAHRSADEQIPSSTSFVKLSDMSEEEWTIFLEKYQELLYPAIEKRKSITLGQKQRQRLGTSCQF
Regarding B1, the binding result in test [1] is “binds”.

B2: PI4Kγ5-nLuc (enzyme, UniProt Q9C671 1-630)
chain: MSRKLDSPIKTQMAVALVKSPLNGEFREFNKVGMKTPVGRRRVFVQTETGCVLGLELDRSDNAHTVKRKLQVALNFPIEESSLTFGDLVLKNDLTAVRSDSPLLLTRNNFHRSSSTPCLSPMRADLQQRRDESSPIEILGNSVSFSFVRQMAKDITKAVKKGIDPVAVNSGLGGAYYFKNSRGESVAIVKPTDEEPYAPNNPKGFVGKALGQPGLKRSVRVGETGYREVAAYLLDKEHFANVPPTALVKITHSIFNVNDGVKASKPMEKMLVSKIASLQQFIPHDYDASEHGTSNFPVSAVHRIGILDIRILNTDRHSGNLLVKKLDGDGMFGQVELVPIDHGLCLPETLEDPYFEWIHWPQASIPFSEDELKYIANLDPLGDCEMLRRELPMVREASLRVLVLCTIFLKEAAANGLCLAEIGEMMTREVRPGDEEPSEIEVVCLEAMSLIGEKDAESPRSDLGNDIEFQFDIDCEEVTDCTKKLALPLGLTFGNARGQLSKVEETTEDGEEEEEEDREEEENDRADLEKMPTIKLSMSLKSTLLGEKSQKYQKHPGARVESAYASSAHRSADEQIPSSTSFVKLSDMSEEEWTIFLEKYQELLYPAIEKRKSITLGQKQRQRLGTSCQF
On to B2, for which the binding entry in test [2] is “binds”.

B3: ANAC078 fragment (271–410 aa), prey clones of the two-hybrid screen (domain or fragment, UniProt Q84K00 271-410)
chain: EEDRKPIIREGSIQPCSLFPEEQIGCGVQDENVVNLESSNNNVFVADTCYSDIPIDHNYLPDEPFMDPNNNLPLNDGLYLETNDLSCAQQDDFNFEDYLSFFDDEGLTFDDSLLMGPEDFLPNQEALDQKPAPKELEKEV
As for B3, the binding result in test [3] was “binds”.
